Reference: paper PMC7858277
Results are given in words; binding and its absence hold for the method and conditions named. In cells and extracts the contact can be indirect. Some entries that bind do so weakly or less than the wild type. For part of these data: Sequences can lack the tags named with a protein.

Amino acid sequences for entries named in this document (tags omitted).
UniProt Q86TM6: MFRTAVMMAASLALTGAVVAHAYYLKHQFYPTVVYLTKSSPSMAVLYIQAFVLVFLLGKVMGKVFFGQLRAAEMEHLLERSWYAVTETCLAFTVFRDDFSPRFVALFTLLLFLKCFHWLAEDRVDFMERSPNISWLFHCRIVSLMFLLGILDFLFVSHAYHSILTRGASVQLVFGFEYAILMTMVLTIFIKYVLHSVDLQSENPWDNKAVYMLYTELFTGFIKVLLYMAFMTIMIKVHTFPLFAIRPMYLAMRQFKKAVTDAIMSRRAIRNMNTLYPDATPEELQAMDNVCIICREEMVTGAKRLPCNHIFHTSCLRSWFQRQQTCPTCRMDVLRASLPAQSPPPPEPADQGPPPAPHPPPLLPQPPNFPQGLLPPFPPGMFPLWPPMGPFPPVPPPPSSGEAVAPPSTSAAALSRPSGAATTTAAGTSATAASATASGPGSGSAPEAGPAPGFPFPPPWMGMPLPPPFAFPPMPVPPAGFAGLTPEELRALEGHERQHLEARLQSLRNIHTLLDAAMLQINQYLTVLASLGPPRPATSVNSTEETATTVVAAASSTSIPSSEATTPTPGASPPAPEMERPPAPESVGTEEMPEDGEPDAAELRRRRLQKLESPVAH

Legend:
Flag-CPT2 = target: T1, Flag-CPT2 (UniProt P23786); test: co-IP; HEK 293T cells transfected for 24 h with Flag-CPT2 and Myc-HRD1 alone or in combination; lysates (NETN buffer) immunoprecipitated with anti-Flag and anti-Myc; immunoblot with anti-Myc or anti-Flag
T1 sequence: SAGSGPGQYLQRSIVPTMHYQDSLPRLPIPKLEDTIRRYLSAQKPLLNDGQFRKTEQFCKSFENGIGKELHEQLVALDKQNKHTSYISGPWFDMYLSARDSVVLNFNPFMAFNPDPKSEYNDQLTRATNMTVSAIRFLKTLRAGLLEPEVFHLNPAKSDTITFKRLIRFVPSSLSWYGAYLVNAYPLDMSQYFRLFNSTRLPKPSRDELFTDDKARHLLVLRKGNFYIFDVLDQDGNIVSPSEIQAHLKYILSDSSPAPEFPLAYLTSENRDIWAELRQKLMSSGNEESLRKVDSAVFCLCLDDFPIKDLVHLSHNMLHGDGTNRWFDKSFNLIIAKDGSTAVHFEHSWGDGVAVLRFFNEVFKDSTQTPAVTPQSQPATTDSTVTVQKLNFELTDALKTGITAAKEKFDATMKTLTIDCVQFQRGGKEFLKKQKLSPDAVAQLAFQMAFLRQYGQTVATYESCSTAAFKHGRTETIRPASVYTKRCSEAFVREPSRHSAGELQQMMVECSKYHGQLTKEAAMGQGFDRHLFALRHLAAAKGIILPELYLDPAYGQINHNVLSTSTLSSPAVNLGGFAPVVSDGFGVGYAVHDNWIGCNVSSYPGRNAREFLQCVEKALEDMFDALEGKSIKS

[1] = target: HMG-CoA reductase degradation protein 1 (HRD1), endogenous (human (endogenous in MDA-MB-231)) (UniProt Q86TM6); test: co-IP; MDA-MB-231 cell lysates (NETN lysis buffer) immunoprecipitated with IgG or HRD1 antibody; immunoblot with HRD1, CPT2 or CPT1A antibody
Myc-HRD1 = Myc-HRD1 (UniProt Q86TM6); test: co-IP; HEK 293T cells transfected for 24 h with Flag-CPT2 and Myc-HRD1 alone or in combination; lysates (NETN buffer) immunoprecipitated with anti-Flag and anti-Myc; immunoblot with anti-Myc or anti-Flag

With “Myc-HRD1 (from UniProt Q86TM6 1-617) (enzyme)” the binding (Flag-CPT2) was “binds”.

B1: carnitine palmitoyltransferase 2 (CPT2), endogenous (enzyme, UniProt P23786 26-658)
chain: T1 sequence
With B1 the binding [1] was “binds”.

B2: Flag-CPT2 (enzyme, UniProt P23786 26-658)
chain: T1 sequence
With B2 the binding (Myc-HRD1) was “binds”.
